Measured values published in patent US20050058645A1.
No constants are given. Whether binding was seen depends on the method and setting. Some binding calls cover weakened binding; strength is not graded here. Where a sequence is shown, tags or fusion partners need not be part of it. Values belong to the binder of their own block, whether it stands above or below them.

Chains of the proteins cited; added tags and fusions are not shown. Residues count along the entry.
UniProt P35225, residues 35-146: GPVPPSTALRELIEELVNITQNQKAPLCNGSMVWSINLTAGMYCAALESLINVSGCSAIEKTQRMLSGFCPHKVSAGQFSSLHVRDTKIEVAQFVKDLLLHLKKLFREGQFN

Target: human IL-13 (human) (UniProt P35225)
Test: Biosensor, immobilized human IL-13, dose-response

binding: binds
B1: chimeric mouse IL-13Rα1-Fc (Fc fusion, UniProt O09030 26-340, looked up, not shown: a dimerising Fc or GST)
chain: ATEVQPPVTNLSVSVENLCTIIWTWSPPEGASPNCTLRYFSHFDDQQDKKIAPETHRKEELPLDEKICLQVGSQCSANESEKPSPLVKKCISPPEGDPESAVTELKCIWHNLSYMKCSWLPGRNTSPDTHYTLYYWYSSLEKSRQCENIYREGQHIACSFKLTKVEPSFEHQNVQIMVKDNAGKIRPSCKIVSLTSYVKPDPPHIKHLLLKNGALLVQWKNPQNFRSRCLTYEVEVNNTQTDRHNILEVEEDKCQNSESDRNMEGTSCFQLPGVLADAVYTVRVRVKTNKLCFDDNKLWSDWSEAQSIGKEQNST

binding: binds
B2: chimeric human IL-13Rα1-Fc (Fc fusion, not shown: a dimerising Fc or GST)
chain: GGGGAAPTETQPPVTNLSVSVENLCTVIWTWNPPEGASSNCSLWYFSHFGDKQDKKIAPETRRSIEVPLNERICLQVGSQCSTNESEKPSILVEKCISPPEGDPESAVTELQCIWHNLSYMKCSWLPGRNTSPDTNYTLYYWHRSLEKIHQCENIFREGQYFGCSFDLTKVKDSSFEQHSVQIMVKDNAGKIKPSFNIVPLTSRVKPDPPHIKNLSFHNDDLYVQWENPQNFISRCLFYEVEVNNSQTETHNVFYVQEAKCENPEFERNVENTSCFMVPGVLPDTLNTVRIRVKTNKLCYEDDKLWSNWSQEMSIGKKRNST
